No constants are given. Whether binding was seen depends on the method and setting. In cells and extracts the contact can be indirect. These calls come from enrichment with a bait or labelling near it, and not all partners need be listed. Where a sequence is shown, tags or fusion partners need not be part of it.

By UniProt entry, the sequences of proteins in these tests, tags left out.
UniProt Q24572: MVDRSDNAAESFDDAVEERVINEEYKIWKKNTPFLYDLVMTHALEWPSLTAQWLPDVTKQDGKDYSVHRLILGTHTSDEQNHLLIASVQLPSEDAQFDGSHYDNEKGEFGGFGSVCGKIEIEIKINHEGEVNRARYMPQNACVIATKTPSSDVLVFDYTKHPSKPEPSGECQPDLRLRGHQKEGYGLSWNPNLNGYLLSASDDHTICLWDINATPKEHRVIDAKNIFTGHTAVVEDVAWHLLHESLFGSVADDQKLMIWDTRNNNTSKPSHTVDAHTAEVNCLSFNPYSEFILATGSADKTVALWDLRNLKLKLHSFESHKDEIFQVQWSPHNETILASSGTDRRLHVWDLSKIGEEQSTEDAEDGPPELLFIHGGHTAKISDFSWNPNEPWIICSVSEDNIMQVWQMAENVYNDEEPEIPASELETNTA

Experimental findings from paper PMC4172637 are described below.

In one assay the target is T1, FLAG-dCTCF (Drosophila) (UniProt Q9VS55).
T1 sequence: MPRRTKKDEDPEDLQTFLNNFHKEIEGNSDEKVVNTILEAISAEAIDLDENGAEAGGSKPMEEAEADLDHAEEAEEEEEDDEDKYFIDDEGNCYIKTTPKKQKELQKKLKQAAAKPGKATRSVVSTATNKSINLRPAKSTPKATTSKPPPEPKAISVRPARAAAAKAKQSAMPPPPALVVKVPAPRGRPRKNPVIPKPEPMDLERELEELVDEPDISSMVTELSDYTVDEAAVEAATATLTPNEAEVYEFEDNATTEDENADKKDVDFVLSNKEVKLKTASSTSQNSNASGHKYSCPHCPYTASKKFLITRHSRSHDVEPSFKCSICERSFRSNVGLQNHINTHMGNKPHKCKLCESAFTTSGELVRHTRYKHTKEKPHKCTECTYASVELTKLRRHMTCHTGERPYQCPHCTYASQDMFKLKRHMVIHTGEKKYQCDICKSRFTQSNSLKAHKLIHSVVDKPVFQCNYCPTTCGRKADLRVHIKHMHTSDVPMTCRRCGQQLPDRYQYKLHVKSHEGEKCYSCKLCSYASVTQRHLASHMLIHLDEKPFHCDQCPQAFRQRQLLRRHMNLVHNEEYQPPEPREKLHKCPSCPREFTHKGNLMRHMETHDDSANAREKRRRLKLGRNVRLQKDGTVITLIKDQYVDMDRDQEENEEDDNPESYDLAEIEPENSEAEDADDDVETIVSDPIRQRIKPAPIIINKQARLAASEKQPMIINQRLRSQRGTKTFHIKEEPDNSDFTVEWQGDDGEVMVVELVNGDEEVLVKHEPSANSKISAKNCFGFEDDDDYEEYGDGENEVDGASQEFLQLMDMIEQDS
In words: affinity purification with mass spectrometry; FLAG-M2 immunopurification of FLAG-dCTCF or FLAG-CP190 from nuclear extract of stably transfected S2 cells; washes 20 mM Tris-HCl pH 7.5, 100 mM NaCl, 0.25% NP-40; TCA precipitation, SDS-PAGE, mass spectrometry.

The target in the next assay is T2, FLAG-CP190 (Drosophila) (UniProt Q24478).
T2 sequence: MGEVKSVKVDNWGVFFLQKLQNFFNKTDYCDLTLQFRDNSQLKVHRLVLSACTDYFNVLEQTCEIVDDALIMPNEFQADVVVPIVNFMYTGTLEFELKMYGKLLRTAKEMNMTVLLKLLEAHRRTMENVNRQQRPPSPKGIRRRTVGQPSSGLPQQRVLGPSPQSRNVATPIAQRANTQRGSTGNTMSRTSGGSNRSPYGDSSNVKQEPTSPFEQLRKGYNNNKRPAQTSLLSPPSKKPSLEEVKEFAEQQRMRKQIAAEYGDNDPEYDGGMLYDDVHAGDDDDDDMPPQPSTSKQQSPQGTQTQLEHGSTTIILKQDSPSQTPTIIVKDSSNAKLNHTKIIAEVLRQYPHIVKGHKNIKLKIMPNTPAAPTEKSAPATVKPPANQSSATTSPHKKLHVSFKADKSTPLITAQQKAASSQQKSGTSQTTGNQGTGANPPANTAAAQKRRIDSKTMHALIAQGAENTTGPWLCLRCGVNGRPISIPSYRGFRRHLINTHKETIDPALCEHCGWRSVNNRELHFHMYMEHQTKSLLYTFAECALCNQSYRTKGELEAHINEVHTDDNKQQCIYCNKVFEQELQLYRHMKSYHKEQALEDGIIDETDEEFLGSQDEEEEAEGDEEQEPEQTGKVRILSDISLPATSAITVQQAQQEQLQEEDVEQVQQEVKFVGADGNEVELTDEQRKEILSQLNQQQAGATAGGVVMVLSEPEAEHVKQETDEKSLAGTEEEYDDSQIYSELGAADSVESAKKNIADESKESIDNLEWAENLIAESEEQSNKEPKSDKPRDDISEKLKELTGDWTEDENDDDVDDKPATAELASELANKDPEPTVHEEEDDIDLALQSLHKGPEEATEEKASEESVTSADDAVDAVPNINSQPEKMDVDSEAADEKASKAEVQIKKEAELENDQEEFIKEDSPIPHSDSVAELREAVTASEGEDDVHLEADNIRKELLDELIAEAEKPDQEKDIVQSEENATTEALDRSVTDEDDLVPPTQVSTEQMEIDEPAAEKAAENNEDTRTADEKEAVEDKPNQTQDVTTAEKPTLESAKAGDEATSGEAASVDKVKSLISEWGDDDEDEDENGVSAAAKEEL
Described as above.

Consider CAF-1/p55 (from UniProt Q24572 1-430), for which the binding entry in the assay with FLAG-dCTCF (Drosophila) and in the assay with FLAG-CP190 (Drosophila) was “binds” in each case.
